These are yes or no findings as the source states them, for the method shown. For part of these data: Binding seen in cells or lysates may run through a third protein. Some results given as binding are weak or reduced against the parent protein; the word gives no strength. For part of these data: Tags and fused reporters may be left off the sequences shown.

Assay [1] has as its target T1, GST-Srp (Drosophila melanogaster) (UniProt P52172).
T1 sequence: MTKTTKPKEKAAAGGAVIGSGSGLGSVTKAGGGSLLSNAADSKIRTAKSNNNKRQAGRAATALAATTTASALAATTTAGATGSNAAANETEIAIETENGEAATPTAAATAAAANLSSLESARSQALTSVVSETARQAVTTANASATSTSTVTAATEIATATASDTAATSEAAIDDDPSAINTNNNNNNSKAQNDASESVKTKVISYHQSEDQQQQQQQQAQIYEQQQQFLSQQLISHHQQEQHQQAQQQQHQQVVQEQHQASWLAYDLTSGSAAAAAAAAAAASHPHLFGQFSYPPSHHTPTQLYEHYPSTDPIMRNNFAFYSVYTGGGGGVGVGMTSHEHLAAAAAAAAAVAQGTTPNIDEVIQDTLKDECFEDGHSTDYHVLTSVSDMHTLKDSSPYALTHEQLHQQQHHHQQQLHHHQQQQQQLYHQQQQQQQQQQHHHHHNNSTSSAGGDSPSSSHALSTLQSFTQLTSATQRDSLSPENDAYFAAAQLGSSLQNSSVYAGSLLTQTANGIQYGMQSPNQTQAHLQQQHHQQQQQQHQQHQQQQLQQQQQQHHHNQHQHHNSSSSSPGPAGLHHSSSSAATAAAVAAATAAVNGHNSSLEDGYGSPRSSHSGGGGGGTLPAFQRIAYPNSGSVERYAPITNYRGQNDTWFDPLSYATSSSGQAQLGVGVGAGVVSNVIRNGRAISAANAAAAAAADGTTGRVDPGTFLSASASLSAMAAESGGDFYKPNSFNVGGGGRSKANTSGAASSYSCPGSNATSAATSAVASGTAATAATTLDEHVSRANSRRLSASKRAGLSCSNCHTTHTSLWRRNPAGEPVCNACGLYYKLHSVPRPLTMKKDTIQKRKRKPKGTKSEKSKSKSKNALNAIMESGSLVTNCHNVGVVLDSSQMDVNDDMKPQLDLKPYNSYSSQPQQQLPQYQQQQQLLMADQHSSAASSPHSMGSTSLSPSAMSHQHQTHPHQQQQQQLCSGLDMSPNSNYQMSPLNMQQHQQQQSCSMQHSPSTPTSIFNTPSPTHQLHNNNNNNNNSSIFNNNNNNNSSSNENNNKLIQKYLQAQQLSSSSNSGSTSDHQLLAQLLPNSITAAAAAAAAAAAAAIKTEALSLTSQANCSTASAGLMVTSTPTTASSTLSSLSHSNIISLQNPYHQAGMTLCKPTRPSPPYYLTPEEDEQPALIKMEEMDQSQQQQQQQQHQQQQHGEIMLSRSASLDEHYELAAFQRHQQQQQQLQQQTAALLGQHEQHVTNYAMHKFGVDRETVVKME
Kind of assay: native gel or EMSA; purified GST-Srp bound to biotin-labelled crq promoter probe; supershift on addition of purified Bfc-6XHis (1, 2 and 4 μg); LightShift Chemiluminescent EMSA Kit; both purified.

Assay [2] concerns the target T2, Booster for Crq (Bfc), yeast two-hybrid bait (Drosophila melanogaster) (UniProt Q9W0I5).
T2 sequence: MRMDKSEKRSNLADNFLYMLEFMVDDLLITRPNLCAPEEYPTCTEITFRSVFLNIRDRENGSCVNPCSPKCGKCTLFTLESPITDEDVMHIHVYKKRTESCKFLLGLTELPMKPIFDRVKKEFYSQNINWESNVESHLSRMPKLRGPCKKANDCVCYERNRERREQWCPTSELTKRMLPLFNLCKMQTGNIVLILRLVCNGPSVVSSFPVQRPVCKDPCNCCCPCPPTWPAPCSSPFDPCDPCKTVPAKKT
Kind of assay: two-hybrid; Bfc as bait, Srp as prey; AH109 yeast; dilutions grown on SD-Trp-Leu-His plates, 3 d at 30°C.

Assay [3] deals with T3, Bfc-Flag (Drosophila melanogaster) (UniProt Q9W0I5).
T3 sequence: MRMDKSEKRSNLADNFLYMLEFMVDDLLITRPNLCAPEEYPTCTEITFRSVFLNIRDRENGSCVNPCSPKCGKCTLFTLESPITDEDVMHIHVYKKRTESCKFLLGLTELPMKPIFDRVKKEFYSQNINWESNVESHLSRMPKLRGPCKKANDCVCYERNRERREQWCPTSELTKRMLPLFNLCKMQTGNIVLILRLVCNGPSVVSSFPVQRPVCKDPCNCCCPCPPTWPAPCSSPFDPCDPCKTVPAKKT
Kind of assay: co-IP; S2 cells co-transfected with Bfc-Flag and HA-Srp; lysis in 50 mM Tris-Cl pH 7.4, 1% Triton X-100, 0.15 M NaCl, 1 mM EDTA; anti-Flag M2 magnetic beads 2 h at 4°C; blots with anti-Flag and anti-HA.

B1: Bfc-6XHis (protein, UniProt Q9W0I5 1-251)
chain: MRMDKSEKRSNLADNFLYMLEFMVDDLLITRPNLCAPEEYPTCTEITFRSVFLNIRDRENGSCVNPCSPKCGKCTLFTLESPITDEDVMHIHVYKKRTESCKFLLGLTELPMKPIFDRVKKEFYSQNINWESNVESHLSRMPKLRGPCKKANDCVCYERNRERREQWCPTSELTKRMLPLFNLCKMQTGNIVLILRLVCNGPSVVSSFPVQRPVCKDPCNCCCPCPPTWPAPCSSPFDPCDPCKTVPAKKT
With B1, the binding entry in assay [1] is “binds”.

B2: GATA transcription factor Serpent (Srp), yeast two-hybrid prey (protein, UniProt P52172 1-1264)
chain: MTKTTKPKEKAAAGGAVIGSGSGLGSVTKAGGGSLLSNAADSKIRTAKSNNNKRQAGRAATALAATTTASALAATTTAGATGSNAAANETEIAIETENGEAATPTAAATAAAANLSSLESARSQALTSVVSETARQAVTTANASATSTSTVTAATEIATATASDTAATSEAAIDDDPSAINTNNNNNNSKAQNDASESVKTKVISYHQSEDQQQQQQQQAQIYEQQQQFLSQQLISHHQQEQHQQAQQQQHQQVVQEQHQASWLAYDLTSGSAAAAAAAAAAASHPHLFGQFSYPPSHHTPTQLYEHYPSTDPIMRNNFAFYSVYTGGGGGVGVGMTSHEHLAAAAAAAAAVAQGTTPNIDEVIQDTLKDECFEDGHSTDYHVLTSVSDMHTLKDSSPYALTHEQLHQQQHHHQQQLHHHQQQQQQLYHQQQQQQQQQQHHHHHNNSTSSAGGDSPSSSHALSTLQSFTQLTSATQRDSLSPENDAYFAAAQLGSSLQNSSVYAGSLLTQTANGIQYGMQSPNQTQAHLQQQHHQQQQQQHQQHQQQQLQQQQQQHHHNQHQHHNSSSSSPGPAGLHHSSSSAATAAAVAAATAAVNGHNSSLEDGYGSPRSSHSGGGGGGTLPAFQRIAYPNSGSVERYAPITNYRGQNDTWFDPLSYATSSSGQAQLGVGVGAGVVSNVIRNGRAISAANAAAAAAADGTTGRVDPGTFLSASASLSAMAAESGGDFYKPNSFNVGGGGRSKANTSGAASSYSCPGSNATSAATSAVASGTAATAATTLDEHVSRANSRRLSASKRAGLSCSNCHTTHTSLWRRNPAGEPVCNACGLYYKLHSVPRPLTMKKDTIQKRKRKPKGTKSEKSKSKSKNALNAIMESGSLVTNCHNVGVVLDSSQMDVNDDMKPQLDLKPYNSYSSQPQQQLPQYQQQQQLLMADQHSSAASSPHSMGSTSLSPSAMSHQHQTHPHQQQQQQLCSGLDMSPNSNYQMSPLNMQQHQQQQSCSMQHSPSTPTSIFNTPSPTHQLHNNNNNNNNSSIFNNNNNNNSSSNENNNKLIQKYLQAQQLSSSSNSGSTSDHQLLAQLLPNSITAAAAAAAAAAAAAIKTEALSLTSQANCSTASAGLMVTSTPTTASSTLSSLSHSNIISLQNPYHQAGMTLCKPTRPSPPYYLTPEEDEQPALIKMEEMDQSQQQQQQQQHQQQQHGEIMLSRSASLDEHYELAAFQRHQQQQQQLQQQTAALLGQHEQHVTNYAMHKFGVDRETVVKME
Consider B2, for which the binding entry in assay [2] is on record as “binds”.

B3: HA-Srp (protein, UniProt P52172 1-1264)
chain: MTKTTKPKEKAAAGGAVIGSGSGLGSVTKAGGGSLLSNAADSKIRTAKSNNNKRQAGRAATALAATTTASALAATTTAGATGSNAAANETEIAIETENGEAATPTAAATAAAANLSSLESARSQALTSVVSETARQAVTTANASATSTSTVTAATEIATATASDTAATSEAAIDDDPSAINTNNNNNNSKAQNDASESVKTKVISYHQSEDQQQQQQQQAQIYEQQQQFLSQQLISHHQQEQHQQAQQQQHQQVVQEQHQASWLAYDLTSGSAAAAAAAAAAASHPHLFGQFSYPPSHHTPTQLYEHYPSTDPIMRNNFAFYSVYTGGGGGVGVGMTSHEHLAAAAAAAAAVAQGTTPNIDEVIQDTLKDECFEDGHSTDYHVLTSVSDMHTLKDSSPYALTHEQLHQQQHHHQQQLHHHQQQQQQLYHQQQQQQQQQQHHHHHNNSTSSAGGDSPSSSHALSTLQSFTQLTSATQRDSLSPENDAYFAAAQLGSSLQNSSVYAGSLLTQTANGIQYGMQSPNQTQAHLQQQHHQQQQQQHQQHQQQQLQQQQQQHHHNQHQHHNSSSSSPGPAGLHHSSSSAATAAAVAAATAAVNGHNSSLEDGYGSPRSSHSGGGGGGTLPAFQRIAYPNSGSVERYAPITNYRGQNDTWFDPLSYATSSSGQAQLGVGVGAGVVSNVIRNGRAISAANAAAAAAADGTTGRVDPGTFLSASASLSAMAAESGGDFYKPNSFNVGGGGRSKANTSGAASSYSCPGSNATSAATSAVASGTAATAATTLDEHVSRANSRRLSASKRAGLSCSNCHTTHTSLWRRNPAGEPVCNACGLYYKLHSVPRPLTMKKDTIQKRKRKPKGTKSEKSKSKSKNALNAIMESGSLVTNCHNVGVVLDSSQMDVNDDMKPQLDLKPYNSYSSQPQQQLPQYQQQQQLLMADQHSSAASSPHSMGSTSLSPSAMSHQHQTHPHQQQQQQLCSGLDMSPNSNYQMSPLNMQQHQQQQSCSMQHSPSTPTSIFNTPSPTHQLHNNNNNNNNSSIFNNNNNNNSSSNENNNKLIQKYLQAQQLSSSSNSGSTSDHQLLAQLLPNSITAAAAAAAAAAAAAIKTEALSLTSQANCSTASAGLMVTSTPTTASSTLSSLSHSNIISLQNPYHQAGMTLCKPTRPSPPYYLTPEEDEQPALIKMEEMDQSQQQQQQQQHQQQQHGEIMLSRSASLDEHYELAAFQRHQQQQQQLQQQTAALLGQHEQHVTNYAMHKFGVDRETVVKME
On to B3, for which the binding result in assay [3] is “binds”.

Source of the values: paper PMC8673676.
